PubChem BioAssay AID1259284 – Sanger Institute | 2017
Shown is one part, drawn at random, of 794 reagents. Over the whole deposit, 16 (2%) got an active call. 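Calls concern knock-down without drug only; drug synergy was judged apart, with scores above 0.15 taken as synergy.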 Entries without a mark were called inactive. No viability above 1 is reported: the scale is capped. Further read-outs or replicates are left out here. Reagent sequences are not shown. Not stated in the record: the amount of reagent, the time to read-out.

Assay: 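siRNA screen across the kinome seeking partners for BYL719, cetuximab or trametinib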 (primary screen)
System: SW48 human colorectal cancer cells
Reagent: siRNA pool against human genes
Conditions: anchor drug BYL719 at 1 µM, cetuximab at 5 µg/ml or trametinib at 10 nM, or DMSO vehicle alone
Measured: 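Cell viability relative to non-targeting pool wells, replicate mean, with robust z-scores and drug synergy scores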
Reading the numbers: robust z-score, no drug: higher = more cells survive knock-down; viability, no drug: higher = more viable cells; synergy with BYL719 and synergy with trametinib: higher = stronger combined killing with drug
Hit rule: 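Called essential when the robust z-score of viability without drug falls below -3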
Calls: active = essential without drug; inactive = no change without drug

The first 2 entries, to show the layout:
gene | robust z-score, no drug | viability, no drug (fraction of control) | synergy with BYL719 | synergy with trametinib
PIK3CB | 0.426 | 1 | -0.0147 | 0.00555
MKNK1 | 0.426 | 1 | -0.258 | -0.212

The listing, repeating the preview:
gene | robust z-score, no drug | viability, no drug (fraction of control) | synergy with BYL719 | synergy with trametinib
PIK3CB | 0.426 | 1 | -0.0147 | 0.00555
MKNK1 | 0.426 | 1 | -0.258 | -0.212
STK11 | 0.426 | 1 | -0.19 | 0.0666
MAPK11 | 0.426 | 1 | -0.178 | -0.145
MINK1 | 0.426 | 1 | -0.111 | -0.191
GUCY2C | 0.426 | 1 | -0.286 | -0.176
HIPK2 | 0.426 | 1 | -0.127 | 0.0951
IPMK | 0.154 | 0.977 | -0.162 | -0.152
RBM10 | -0.913 | 0.885 | -0.117 | -0.0907
PIP4K2A | 0.426 | 1 | -0.367 | -0.242
CDK15 | 0.426 | 1 | -0.093 | -0.0538
CHD4 | -3.51 (active) | 0.663 | -0.0645 | 0.1
ALPK2 | 0.426 | 1 | -0.0958 | 0.00778
BRSK2 | 0.426 | 1 | -0.069 | -0.0625
TNK1 | -1.59 | 0.827 | -0.209 | -0.0356
PRKAG1 | 0.426 | 1 | -0.322 | -0.0492
AURKC | 0.426 | 1 | -0.0905 | 0.0138
RPS6KA4 | 0.426 | 1 | -0.191 | -0.122
ROR1 | 0.426 | 1 | -0.225 | -0.12
PAPSS1 | 0.426 | 1 | -0.157 | -0.21
